A short description of data set [1]: physchem. The following applies: buffer, pH 7.4.
Data set [2] is described as follows: physchem. The following applies: buffer, pH 5.
Data set [3] can be described thus: physchem. The following applies: simulated gi fluid, pH 1.6.

Converted amounts (≈) assume the structure as drawn.

As for `O=C(Nc1sc2c(c1C(=O)N1CCN(Cc3ccccc3)CC1)CCCC2)c1ccccc1F`, the kinetic solubility at 2 h was 12.9 µM (≈ 6.14 µg/mL) in the data set “physchem [1]”, 34 µM (≈ 16.2 µg/mL) in “physchem [2]” and 291 µM (≈ 139 µg/mL) in “physchem [3]”.

The values are drawn from ChEMBL document CHEMBL5338779, “Discovery, Synthesis, and In Vitro Characterization of 2,3 Derivatives of 4,5,6,7-Tetrahydro-Benzothiophene as Potent Modulators of Retinoic Acid Receptor-Related Orphan Receptor γt” (J Med Chem, 2023).
